Test results taken from PubChem BioAssay AID504847 (National Center for Advancing Translational Sciences (NCATS), 2011).
Where “and” joins values, the source holds several entries; their conditions need not be identical. Equal entries are not always repeated. Out of some 400,000 compounds screened, about 3,700 (0.93%) were called active. Inconclusive means that the source gave no clear call. Such entries were picked first, then a sample of the others. The call rests on the fitted dose curve; in most records, active means well fitted inhibition curve with a large enough effect; inconclusive means small, poorly fitted or top-dose-only effect, or another doubt; inactive means no such curve, though single readings can be large or run the other way. Where the call is inconclusive, the potency comes from a doubtful curve fit.

The chains behind the UniProt entries cited, without tags or fusion partners.
UniProt P11473, whole entry, looked up: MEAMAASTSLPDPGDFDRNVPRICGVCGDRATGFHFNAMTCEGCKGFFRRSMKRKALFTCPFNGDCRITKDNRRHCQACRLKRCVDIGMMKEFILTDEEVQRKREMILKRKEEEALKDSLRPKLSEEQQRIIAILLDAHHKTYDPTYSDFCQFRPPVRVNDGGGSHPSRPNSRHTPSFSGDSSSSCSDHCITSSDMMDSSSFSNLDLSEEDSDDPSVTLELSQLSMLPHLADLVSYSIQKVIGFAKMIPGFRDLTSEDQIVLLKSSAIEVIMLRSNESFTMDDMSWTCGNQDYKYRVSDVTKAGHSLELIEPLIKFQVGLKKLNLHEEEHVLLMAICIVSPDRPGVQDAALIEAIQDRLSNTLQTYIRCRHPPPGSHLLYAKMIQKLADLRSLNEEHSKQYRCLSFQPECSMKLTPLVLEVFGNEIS

What follows are compounds tested against Vitamin D3 receptor (Homo sapiens) (UniProt P11473) (assay: Inhibitors of the vitamin D receptor (VDR): qHTS). Details: VDR-SRC2-3 peptide fluorescence polarization, 2 h; max response, negative = inhibition: active compounds read low.
How it was run: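 Signal is fluorescence polarization, reporting how far test compounds block the interaction of VDR with the SRC2-3 coregulator peptide after a 2 h room-temperature incubation.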
On the % scale 0 is the no-effect control and ±100 the full control effect; potency means the concentration at half of the fitted maximal effect.

Potency, inconclusive:
CC(C)c1cc(C(=O)O)c2cnn(C(C)C)c2n1 28.2 µM [inhibitor, single point]
C=CCNc1nc(NCCO)nc(N2CCCC2)n1 100 µM [inhibitor, partial curve, poor fit]
COC(=O)C1=C(C)OC(N)=C(C#N)C1c1ccccc1F (stereo unspecified) 79.4 µM [inhibitor, partial curve, poor fit]
CCOC(=O)C(=O)C1=CN(Cc2ccccc2)C=C(C#N)C1 56.2 µM [inhibitor, partial curve, poor fit]
CC(C)CN1CCC(=O)N([C@H](CSc2ccccc2)Cc2ccccc2)CC1 28.2 µM [inhibitor, full curve]
COc1ccc(C2CC(c3ccc4ccccc4c3OC(C)=O)=NN2C(=O)/C=C/c2ccccc2)cc1 (stereo unspecified) 79.4 µM [inhibitor, partial curve, poor fit]
CCOC(=O)N1CC=C2C(C#N)=C(N)C(C#N)(C#N)[C@H](c3ccc(OC(C)C)c(OCC)c3)[C@H]2C1 79.4 µM [inhibitor, partial curve, poor fit]
CCN(C[C@H]1N[C@@](Cc2ccccc2)(C(=O)OC)[C@H]2C(=O)N(Cc3ccccc3)C(=O)[C@@H]12)C(=O)C1CCCCC1 56.2 µM [inhibitor, partial curve, poor fit]
CCOc1cc(C(c2c(C)[nH]n(-c3ccccc3)c2=O)c2c(C)[nH]n(-c3ccccc3)c2=O)ccc1O 63.1 µM [inhibitor, partial curve, poor fit]
Cn1c(C(=O)N[C@@H](C(=O)O)c2ccccc2)cc2cc(Cl)ccc21 79.4 µM [inhibitor, single point]
N#Cc1c(-c2ccccc2)nc(SCC(=O)Nc2nnc(C(F)(F)F)s2)[nH]c1=O 89.1 µM [inhibitor, partial curve, poor fit]
CC(=O)c1cccc(OCc2cc(C(=O)N(C)Cc3ccc(C)o3)no2)c1 79.4 µM [inhibitor, partial curve]
CCC(c1ccccc1)C(CC)c1cc(O)c(O)c(O)c1 (stereo unspecified) 20 µM [inhibitor, full curve, poor fit]
CCN(Cc1ccncc1)S(=O)(=O)c1ccc(C(C)=O)cc1 89.1 µM [inhibitor, single point]
Cc1c(Br)cc(C(=O)NCCCN2CCOCC2)c(C)c1C 0.631 µM [inhibitor, full curve, poor fit]
CCOCCCNC(=O)CN1N=C(c2ccc(C)cc2)CCC1=O 100 µM [inhibitor, single point]
[O-][n+]1c2ccccc2[n+]([O-])c2cc(O)ccc21 56.2 µM [inhibitor, partial curve, poor fit]
COc1cccc(C(=O)NNC(=O)CCc2ccccc2)c1 79.4 µM [inhibitor, single point]
O=C(CSc1nnc(-c2ccccn2)n1Cc1ccco1)c1ccc(-c2ccccc2)cc1 89.1 µM [inhibitor, partial curve, poor fit]
O=C(c1c(O)cc(O)cc1O)C1c2c(cc(O)c3c2O[C@H](c2ccc(O)cc2)[C@@H](O)C3)OC1c1ccc(O)cc1 (stereo partly specified) 89.1 µM [inhibitor, partial curve, poor fit]
Cc1cccc(C2c3[nH]c4ccccc4c3CCN2C(=O)c2nn(C)c(=O)c3ccccc23)n1 (stereo unspecified) 44.7 µM [inhibitor, partial curve, poor fit]
CCOC(=O)c1ccc(OS(=O)(=O)c2ccccc2)c(OC)c1 100 µM [inhibitor, single point]
O=C(N/N=C/c1ccc(O)c(O)c1)c1ccc(-n2cnnn2)cc1 89.1 µM [inhibitor, partial curve, poor fit]
Cc1ccc(-c2cc(C(=O)NCc3ccco3)c3ccccc3n2)s1 79.4 µM [inhibitor, partial curve, poor fit]
O=C(NCC1CCCO1)c1ccc2c(c1)N(Cc1ccccc1)C(=O)CS2=O (stereo unspecified) 56.2 µM [inhibitor, partial curve, poor fit]

Potency, active:
NC(=O)n1c(O)c(C(=O)c2cccs2)c2cc(Cl)ccc21 44.7 µM
CCOc1ccccc1NC(=O)c1nc(S(=O)(=O)Cc2cccc(C)c2)ncc1Cl 15.8 µM
NCCSSCCN 14.1 µM and 25.1 µM
C=CCN(c1ccc(C(=O)Nc2ccc(NC(C)=O)cc2)cc1)S(C)(=O)=O 35.5 µM
CCN1CCN(c2nc(C)nc3c2sc(=S)n3C)CC1 25.1 µM

Max response, negative = inhibition, inactive:
COc1ccc(N2C(=O)CC(Sc3nccc(C)n3)C2=O)cc1 (stereo unspecified) 6.69%
CCN(CC)S(=O)(=O)c1cccc(NC2=NCC(C)S2)c1 (stereo unspecified) 25.7%
Cc1cc(OCCN2CCCCCC2)ccc1[N+](=O)[O-] 1.61%
COc1ccc(COC(=O)c2cccc(S(=O)(=O)N3CCN(C(C)=O)CC3)c2)cc1 -16.3%
O=[N+]([O-])c1ccc(Nc2cccc(F)c2)nc1 -6.13%
O=[N+]([O-])c1ccc(C(O)CN2CCOCC2)cc1 (stereo unspecified) -5.14%
COc1cccc(CN2C(=O)c3ccccc3Sc3ccc(C(=O)NCc4ccccc4)cc32)c1 -17.8%
Cc1ccc(S(=O)(=O)N2CCCCC2)cc1NC(=O)CNc1ccc(C(F)(F)F)cc1 12%
CCOC(=O)c1cc(CC)sc1NC(=O)c1cc([N+](=O)[O-])ccc1N1CCOCC1 3.33%
O=C(Nc1nc2ccccc2s1)C1CCCN1S(=O)(=O)c1ccc(Cl)cc1 (stereo unspecified) 12.1%
COc1ccc(CCNC(=O)c2cc3c(=O)n4cccc(C)c4nc3n2C)cc1 1.43%

Three records drawn at random from the list so far:
Max response, negative = inhibition, inactive:
CCOC(=O)c1cc(CC)sc1NC(=O)c1cc([N+](=O)[O-])ccc1N1CCOCC1 3.33%
O=[N+]([O-])c1ccc(C(O)CN2CCOCC2)cc1 (stereo unspecified) -5.14%
O=C(Nc1nc2ccccc2s1)C1CCCN1S(=O)(=O)c1ccc(Cl)cc1 (stereo unspecified) 12.1%
